Data published in publication doi:10.1101/2023.12.08.570772.
Residue numbers refer to the chain shown, from its start. No constants are given. Whether binding was seen depends on the method and setting. Binding seen in cells or lysates may run through a third protein. Here binding means that the protein was enriched with, or labelled near, the bait; the list need not be complete. For some assays here: No binding means not detected with the bait. Tags and fused reporters may be left off the sequences shown.

Protein sequences, listed by entry. Tags and fused reporters are not part of them.
UniProt Q13263: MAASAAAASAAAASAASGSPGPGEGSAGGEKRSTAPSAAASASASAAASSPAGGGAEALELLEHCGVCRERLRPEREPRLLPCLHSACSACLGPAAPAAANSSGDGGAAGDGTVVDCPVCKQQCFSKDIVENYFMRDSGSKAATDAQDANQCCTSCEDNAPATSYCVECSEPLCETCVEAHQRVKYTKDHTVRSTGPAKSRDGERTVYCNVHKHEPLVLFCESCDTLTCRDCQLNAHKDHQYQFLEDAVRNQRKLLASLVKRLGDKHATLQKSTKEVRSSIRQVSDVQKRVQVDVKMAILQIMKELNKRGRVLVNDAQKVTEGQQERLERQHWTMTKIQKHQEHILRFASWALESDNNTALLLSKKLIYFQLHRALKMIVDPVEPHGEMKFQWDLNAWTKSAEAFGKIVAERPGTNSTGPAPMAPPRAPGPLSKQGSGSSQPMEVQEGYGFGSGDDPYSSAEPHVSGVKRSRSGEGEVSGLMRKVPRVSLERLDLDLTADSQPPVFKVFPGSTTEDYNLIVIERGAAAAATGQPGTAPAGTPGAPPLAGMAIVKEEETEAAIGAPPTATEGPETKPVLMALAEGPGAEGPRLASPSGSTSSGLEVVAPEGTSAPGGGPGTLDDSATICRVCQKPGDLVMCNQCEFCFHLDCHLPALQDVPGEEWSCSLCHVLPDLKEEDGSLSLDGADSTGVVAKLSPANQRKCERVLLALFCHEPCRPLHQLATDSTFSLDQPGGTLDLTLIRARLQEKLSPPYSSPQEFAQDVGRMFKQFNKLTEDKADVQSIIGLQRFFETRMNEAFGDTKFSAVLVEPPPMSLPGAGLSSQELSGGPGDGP

Key:
[1] = target: T1, GFP-tagged MAGEC2 WT (human) (UniProt Q9UBF1); test: affinity purification with mass spectrometry
T1 sequence: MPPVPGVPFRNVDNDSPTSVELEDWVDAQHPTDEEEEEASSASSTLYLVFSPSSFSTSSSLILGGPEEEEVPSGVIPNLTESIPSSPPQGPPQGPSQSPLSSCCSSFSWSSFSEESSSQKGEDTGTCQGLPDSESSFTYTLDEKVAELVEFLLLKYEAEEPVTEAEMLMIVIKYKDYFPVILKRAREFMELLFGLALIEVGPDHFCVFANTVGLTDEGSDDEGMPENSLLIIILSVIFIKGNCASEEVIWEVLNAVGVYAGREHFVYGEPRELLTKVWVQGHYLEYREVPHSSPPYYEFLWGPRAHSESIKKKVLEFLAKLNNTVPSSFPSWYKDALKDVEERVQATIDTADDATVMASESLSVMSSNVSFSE

[2] = target: T2, GFP-tagged MAGEC2 L318D (human) (UniProt Q9UBF1); test: affinity purification with mass spectrometry
T2 sequence: T1 sequence with L318D

With “Tripartite motif-containing protein 28 (TRIM28) (from UniProt Q13263 1-835) (enzyme)” as the substance, how does the binding [1] read?
Its binding is “binds”.

And the binding [2]?
Its binding is “no binding”.
